{
  "source": "patent US20260116967A1",
  "about": "(CSPC MEGALITH BIOPHARMACEUTICAL, published 2026)",
  "binders": {"B1": {"name": "Hab1B10E8.6 (antibody, V domains shown)", "VH": "QVQLVQSGAEVKKPGASVKVSCKASGYSFPSYWMHWVRQAPGQGLEWIGEINPSNGLTNYNEQFRNRVTMTVDTSTSTVYMELSSLRSEDTAVYYCARHHGSTYYALDSWGQGTLVTVSS", "VL": "DIVMTQSPDSLAVSLGERATINCKSSQSLLNSINQKNFLAWYQQKPGQPPKLLVYFASTRESGVPDRFSGSGSGTDFTLTISSLQAEDVAVYFCQQHYSTPPTFGGGTKLEIK", "notes": "Humanized antibody; also called Hab1B10E8-VH.1b + Hab1B10E8-VL.1b"}, "B2": {"name": "Hab21F10C10.12 (antibody, V domains shown)", "VH": "QVQLVQSGAEVKKPGASVKVSCKASGYTFINNFIEWVRQAPGQGLEWMGVINPGSGDANYAQKFQGRVTMTRDTSISTAYMELSRLRSDDTAVYYCASHWLAYWGQGTTVTVSS", "VL": "EIVMTQSPPTLSLSPGERVTLSCRSSQSLLSSGNQKNYLSWYQQKPGQAPRLLIYGASTRETGIPARFSGSGSGTDFTLTISSLQPEDFAVYYCQNGHFYPYTFGGGTKLEIK", "notes": "Humanized antibody; also called Hab21F10C10-VH.1d + Hab21F10C10-VL.1c"}, "B3": {"name": "Hab43F7C9.12 (antibody, V domains shown)", "VH": "QVQLQESGPGLVKPSETLSLTCTVSGYSISSDYAWNWIRQPPGKGLEWIGYIRYNGNTNYNPSLKSRVTISVDTSKNQFSLKLSSVTAADTAVYYCAIIYYDYDGFVYWGQGTTVTVSS", "VL": "DIQMTQSPSSLSASVGDRVTITCRASQNVYENLHWYQQKPGKAPKLLIKFASDSISGVPSRFSGSGSGTDFTLTISSLQPEDFATYYCLQLYSTPYTFGGGTKLEIK", "notes": "Humanized antibody; also called Hab43F7C9-VH.1d + Hab43F7C9-VL.1c; 43H7C9.12"}},
  "target": "recombinant cynomolgus monkey (Cyno) PVRIG protein (cynomolgus monkey)",
  "experiment": "ELISA, Cyno-PVRIG protein coated",
  "note": "No constants are given. Whether binding was seen depends on the method and setting. Some binding calls cover weakened binding; strength is not graded here.",
  "data": [
    {"binder": "B1", "values": [
      {"measurement": "binding", "value": "binds"}
    ]},
    {"binder": "B2", "values": [
      {"measurement": "binding", "value": "binds"}
    ]},
    {"binder": "B3", "values": [
      {"measurement": "binding", "value": "binds"}
    ]}
  ]
}
